Test results taken from publication PMC9097781.

The chains behind the UniProt entries cited, without tags or fusion partners. Where a name states a change or a piece, a line headed by the entry shows the natural chain unless it says otherwise. A line that says so, or that is headed by a name, gives the form on record, which may keep a tag or linker. Residues count along the entry.
UniProt P20029, residues 20-655: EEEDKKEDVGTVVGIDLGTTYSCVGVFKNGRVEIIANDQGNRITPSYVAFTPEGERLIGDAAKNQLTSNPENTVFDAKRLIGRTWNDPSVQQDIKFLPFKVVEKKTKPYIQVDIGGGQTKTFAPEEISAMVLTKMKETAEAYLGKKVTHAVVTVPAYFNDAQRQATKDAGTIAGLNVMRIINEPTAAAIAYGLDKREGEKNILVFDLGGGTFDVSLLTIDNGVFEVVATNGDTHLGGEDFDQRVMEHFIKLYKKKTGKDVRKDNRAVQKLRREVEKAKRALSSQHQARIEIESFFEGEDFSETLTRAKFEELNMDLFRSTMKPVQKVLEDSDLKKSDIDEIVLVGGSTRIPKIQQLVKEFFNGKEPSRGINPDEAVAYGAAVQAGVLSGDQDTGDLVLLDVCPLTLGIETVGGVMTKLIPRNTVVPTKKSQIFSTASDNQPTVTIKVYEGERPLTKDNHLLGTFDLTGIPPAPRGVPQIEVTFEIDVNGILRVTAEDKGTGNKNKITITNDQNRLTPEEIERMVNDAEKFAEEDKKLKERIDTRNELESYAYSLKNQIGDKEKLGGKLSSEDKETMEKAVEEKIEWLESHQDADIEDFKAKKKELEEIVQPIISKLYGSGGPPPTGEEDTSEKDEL
UniProt Q3THK7: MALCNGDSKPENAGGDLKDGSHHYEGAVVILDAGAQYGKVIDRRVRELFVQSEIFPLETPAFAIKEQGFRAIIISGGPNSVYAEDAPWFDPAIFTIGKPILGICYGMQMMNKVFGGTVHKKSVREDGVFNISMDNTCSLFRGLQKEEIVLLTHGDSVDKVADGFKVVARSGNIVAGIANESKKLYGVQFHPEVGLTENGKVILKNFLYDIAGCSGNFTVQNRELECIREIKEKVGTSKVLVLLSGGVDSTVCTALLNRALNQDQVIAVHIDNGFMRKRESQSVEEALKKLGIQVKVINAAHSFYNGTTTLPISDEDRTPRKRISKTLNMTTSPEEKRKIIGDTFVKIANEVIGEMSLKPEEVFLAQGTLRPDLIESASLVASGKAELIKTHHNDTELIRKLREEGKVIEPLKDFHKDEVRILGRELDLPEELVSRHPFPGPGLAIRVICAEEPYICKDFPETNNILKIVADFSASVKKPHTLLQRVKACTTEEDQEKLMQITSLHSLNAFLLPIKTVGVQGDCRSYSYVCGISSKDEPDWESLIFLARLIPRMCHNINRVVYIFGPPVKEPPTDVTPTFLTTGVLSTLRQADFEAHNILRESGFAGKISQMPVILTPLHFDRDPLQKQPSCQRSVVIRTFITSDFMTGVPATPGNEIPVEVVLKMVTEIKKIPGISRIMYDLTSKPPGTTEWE
UniProt Q9D6F9: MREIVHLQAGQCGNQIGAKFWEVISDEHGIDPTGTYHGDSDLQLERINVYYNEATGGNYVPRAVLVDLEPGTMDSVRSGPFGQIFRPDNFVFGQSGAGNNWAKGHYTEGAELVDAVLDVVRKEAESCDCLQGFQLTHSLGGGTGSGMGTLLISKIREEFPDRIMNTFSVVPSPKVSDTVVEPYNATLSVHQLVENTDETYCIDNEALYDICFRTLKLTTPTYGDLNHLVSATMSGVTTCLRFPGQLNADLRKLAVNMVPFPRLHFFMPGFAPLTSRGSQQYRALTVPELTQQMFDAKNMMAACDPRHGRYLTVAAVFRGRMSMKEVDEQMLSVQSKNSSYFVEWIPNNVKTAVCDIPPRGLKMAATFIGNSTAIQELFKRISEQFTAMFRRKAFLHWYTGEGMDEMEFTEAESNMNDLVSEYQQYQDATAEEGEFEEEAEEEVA
UniProt P99024: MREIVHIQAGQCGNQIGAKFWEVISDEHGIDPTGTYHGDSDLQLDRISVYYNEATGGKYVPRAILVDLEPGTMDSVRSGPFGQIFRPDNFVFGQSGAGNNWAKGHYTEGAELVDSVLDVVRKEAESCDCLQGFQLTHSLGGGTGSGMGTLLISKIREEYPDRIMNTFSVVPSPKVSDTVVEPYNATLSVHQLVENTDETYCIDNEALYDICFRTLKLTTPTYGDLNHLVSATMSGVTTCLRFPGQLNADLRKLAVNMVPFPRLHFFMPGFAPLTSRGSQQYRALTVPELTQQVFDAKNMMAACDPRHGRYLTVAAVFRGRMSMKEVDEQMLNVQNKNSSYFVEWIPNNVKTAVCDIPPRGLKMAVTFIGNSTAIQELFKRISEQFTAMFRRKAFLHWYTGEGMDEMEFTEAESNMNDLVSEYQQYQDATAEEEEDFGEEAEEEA
UniProt Q99104: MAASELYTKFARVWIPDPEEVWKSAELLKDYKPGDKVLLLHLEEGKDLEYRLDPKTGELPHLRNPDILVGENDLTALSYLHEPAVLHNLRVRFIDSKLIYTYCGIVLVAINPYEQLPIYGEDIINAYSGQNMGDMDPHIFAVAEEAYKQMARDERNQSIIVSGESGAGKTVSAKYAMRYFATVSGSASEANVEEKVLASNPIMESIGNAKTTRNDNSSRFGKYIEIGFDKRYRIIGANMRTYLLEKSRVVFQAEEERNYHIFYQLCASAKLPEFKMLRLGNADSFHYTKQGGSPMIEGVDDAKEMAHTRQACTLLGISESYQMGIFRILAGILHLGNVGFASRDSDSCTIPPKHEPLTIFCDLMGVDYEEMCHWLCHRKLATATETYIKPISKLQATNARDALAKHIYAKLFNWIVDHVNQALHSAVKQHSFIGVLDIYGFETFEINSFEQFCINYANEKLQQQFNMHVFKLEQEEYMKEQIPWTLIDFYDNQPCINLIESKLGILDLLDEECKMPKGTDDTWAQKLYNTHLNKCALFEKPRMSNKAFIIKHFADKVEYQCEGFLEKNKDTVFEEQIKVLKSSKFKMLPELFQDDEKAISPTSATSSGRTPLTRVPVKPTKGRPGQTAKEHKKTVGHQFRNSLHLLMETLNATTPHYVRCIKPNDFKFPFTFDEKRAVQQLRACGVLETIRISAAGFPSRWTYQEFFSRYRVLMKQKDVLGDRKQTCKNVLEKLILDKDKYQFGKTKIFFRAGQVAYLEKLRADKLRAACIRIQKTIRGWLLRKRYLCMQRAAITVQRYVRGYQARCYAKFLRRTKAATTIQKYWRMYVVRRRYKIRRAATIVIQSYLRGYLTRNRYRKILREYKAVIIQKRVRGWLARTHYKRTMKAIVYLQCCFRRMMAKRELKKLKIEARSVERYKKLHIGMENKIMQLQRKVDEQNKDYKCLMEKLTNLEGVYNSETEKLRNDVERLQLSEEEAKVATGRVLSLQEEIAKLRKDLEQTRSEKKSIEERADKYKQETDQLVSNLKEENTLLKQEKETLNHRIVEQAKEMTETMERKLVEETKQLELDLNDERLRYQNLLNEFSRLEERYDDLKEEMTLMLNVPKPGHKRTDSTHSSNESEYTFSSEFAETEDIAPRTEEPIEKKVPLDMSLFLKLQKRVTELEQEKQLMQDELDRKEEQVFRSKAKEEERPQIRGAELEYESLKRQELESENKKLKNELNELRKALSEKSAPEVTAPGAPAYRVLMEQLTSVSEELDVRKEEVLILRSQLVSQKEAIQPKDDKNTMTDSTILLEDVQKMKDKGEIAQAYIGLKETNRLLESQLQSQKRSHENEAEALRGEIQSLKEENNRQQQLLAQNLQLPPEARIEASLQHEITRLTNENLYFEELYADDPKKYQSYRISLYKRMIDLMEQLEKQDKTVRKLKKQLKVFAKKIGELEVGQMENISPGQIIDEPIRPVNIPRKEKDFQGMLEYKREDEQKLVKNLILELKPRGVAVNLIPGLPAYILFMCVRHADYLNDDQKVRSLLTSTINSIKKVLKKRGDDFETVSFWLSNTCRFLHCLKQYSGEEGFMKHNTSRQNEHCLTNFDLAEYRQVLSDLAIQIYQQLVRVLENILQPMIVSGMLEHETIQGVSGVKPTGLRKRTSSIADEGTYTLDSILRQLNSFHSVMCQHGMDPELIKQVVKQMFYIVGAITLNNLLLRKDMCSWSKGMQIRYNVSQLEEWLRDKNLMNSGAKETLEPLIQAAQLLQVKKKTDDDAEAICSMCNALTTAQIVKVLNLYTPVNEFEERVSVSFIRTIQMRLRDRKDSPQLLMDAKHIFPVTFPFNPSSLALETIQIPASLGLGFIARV
Isoform Tau-B of Microtubule-associated protein tau (Mapt) (P10637-3, form named): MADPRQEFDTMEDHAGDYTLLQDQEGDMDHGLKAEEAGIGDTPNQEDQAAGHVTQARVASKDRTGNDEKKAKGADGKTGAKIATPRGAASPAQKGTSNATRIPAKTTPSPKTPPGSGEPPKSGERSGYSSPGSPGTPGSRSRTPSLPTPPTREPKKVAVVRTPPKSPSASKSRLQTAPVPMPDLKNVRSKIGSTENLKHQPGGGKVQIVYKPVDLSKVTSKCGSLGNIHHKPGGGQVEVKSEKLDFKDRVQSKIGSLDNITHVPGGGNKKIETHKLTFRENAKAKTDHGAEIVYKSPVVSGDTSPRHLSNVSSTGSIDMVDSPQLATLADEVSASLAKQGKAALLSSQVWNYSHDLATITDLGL
UniProt P68372: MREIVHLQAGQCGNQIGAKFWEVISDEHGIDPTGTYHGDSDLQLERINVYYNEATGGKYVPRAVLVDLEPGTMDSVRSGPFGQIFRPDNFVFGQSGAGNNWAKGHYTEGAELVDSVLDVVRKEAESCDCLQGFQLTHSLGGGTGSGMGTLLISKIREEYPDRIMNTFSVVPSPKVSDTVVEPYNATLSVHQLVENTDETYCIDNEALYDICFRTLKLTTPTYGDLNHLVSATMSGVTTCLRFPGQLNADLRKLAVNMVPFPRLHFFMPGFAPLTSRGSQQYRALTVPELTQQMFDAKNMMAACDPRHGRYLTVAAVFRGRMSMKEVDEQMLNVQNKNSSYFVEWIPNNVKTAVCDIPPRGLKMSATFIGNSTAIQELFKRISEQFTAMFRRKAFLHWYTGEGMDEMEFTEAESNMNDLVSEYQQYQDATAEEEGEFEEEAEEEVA
UniProt P38647, residues 47-679: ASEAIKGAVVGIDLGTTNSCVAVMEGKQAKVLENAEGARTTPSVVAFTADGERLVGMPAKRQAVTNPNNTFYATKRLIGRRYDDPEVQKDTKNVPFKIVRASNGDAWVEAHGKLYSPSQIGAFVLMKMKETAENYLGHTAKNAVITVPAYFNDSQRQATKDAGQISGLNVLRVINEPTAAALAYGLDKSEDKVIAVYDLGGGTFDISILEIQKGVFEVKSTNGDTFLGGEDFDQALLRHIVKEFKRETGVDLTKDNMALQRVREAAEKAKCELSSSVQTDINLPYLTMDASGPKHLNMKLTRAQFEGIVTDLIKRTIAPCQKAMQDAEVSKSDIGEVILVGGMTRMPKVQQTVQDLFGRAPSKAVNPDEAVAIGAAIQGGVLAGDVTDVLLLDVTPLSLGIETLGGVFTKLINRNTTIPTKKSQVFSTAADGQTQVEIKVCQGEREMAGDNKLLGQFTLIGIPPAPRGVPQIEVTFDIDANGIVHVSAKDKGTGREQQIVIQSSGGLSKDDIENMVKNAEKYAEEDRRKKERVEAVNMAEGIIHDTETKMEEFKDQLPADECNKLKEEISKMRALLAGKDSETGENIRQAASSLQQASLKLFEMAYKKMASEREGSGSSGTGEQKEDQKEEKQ
UniProt Q922F4: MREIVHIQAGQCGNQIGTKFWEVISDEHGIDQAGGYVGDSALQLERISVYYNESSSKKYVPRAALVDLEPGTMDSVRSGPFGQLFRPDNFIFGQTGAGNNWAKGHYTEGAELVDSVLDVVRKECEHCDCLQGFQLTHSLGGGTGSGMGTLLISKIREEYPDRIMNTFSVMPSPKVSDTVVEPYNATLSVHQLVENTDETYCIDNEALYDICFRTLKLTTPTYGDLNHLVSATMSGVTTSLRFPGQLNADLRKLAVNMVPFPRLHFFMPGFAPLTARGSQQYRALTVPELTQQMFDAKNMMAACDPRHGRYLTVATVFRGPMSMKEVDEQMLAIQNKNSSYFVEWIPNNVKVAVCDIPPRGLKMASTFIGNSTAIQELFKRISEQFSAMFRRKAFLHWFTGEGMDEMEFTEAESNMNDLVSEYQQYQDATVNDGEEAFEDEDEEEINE
UniProt A2AQ07: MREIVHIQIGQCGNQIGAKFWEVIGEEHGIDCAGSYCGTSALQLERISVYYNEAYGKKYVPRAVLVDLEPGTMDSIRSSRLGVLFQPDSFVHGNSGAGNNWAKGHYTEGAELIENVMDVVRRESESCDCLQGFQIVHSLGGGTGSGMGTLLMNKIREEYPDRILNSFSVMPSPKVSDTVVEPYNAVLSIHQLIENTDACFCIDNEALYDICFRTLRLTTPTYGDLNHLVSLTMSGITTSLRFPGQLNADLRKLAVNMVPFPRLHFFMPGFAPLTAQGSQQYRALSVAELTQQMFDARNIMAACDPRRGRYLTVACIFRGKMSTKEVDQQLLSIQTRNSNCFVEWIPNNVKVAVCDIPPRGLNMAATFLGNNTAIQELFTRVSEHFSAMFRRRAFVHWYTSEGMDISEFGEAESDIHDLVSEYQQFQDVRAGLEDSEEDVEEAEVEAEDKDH

Biological target: T1, GST-MLLT11 (mouse) (UniProt P97783)
T1 sequence: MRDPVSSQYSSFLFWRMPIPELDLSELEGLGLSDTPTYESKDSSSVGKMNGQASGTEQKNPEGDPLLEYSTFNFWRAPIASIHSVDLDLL
Assay: affinity purification with mass spectrometry; GST-MLLT11 (6 µg) immobilized on Glutathione Sepharose 4B beads, incubated overnight at 4°C with embryonic mouse whole-brain lysate in NP-40 lysis buffer (50 mM Tris pH 8.0, 150 mM NaCl, 1% NP-40); bands cut from a Coomassie-stained SDS-PAGE gel for mass spectrometry; GST beads as control; only the target purified

Q: Which binding does the source give for “Endoplasmic reticulum chaperone BiP (Hspa5) (from UniProt P20029 20-655)” here?
A: Its binding is “binds”.

Q: How did the binding turn out when “GMP synthase [glutamine-hydrolyzing] (Gmps) (from UniProt Q3THK7 1-693) (enzyme)” was run?
A: The binding was “binds”.

Q: “Tubulin β-4A chain (Tubb4a) (from UniProt Q9D6F9 1-444)” was tested. Which binding did it give?
A: The binding was “binds”.

Q: For “Tubulin β-5 chain (Tubb5) (from UniProt P99024 1-444)”, which binding is on record?
A: The binding was “binds”.

Q: Which binding does the source give for “Unconventional myosin-Va (Myo5a) (from UniProt Q99104 1-1853)” here?
A: Its binding is “binds”.

Q: Which binding does the source give for “Myosin-10 (Myh10) (from UniProt Q61879 1-1976)” here?
A: Its binding is “binds”.

Q: How did the binding turn out when “Isoform Tau-B of Microtubule-associated protein tau (Mapt) (from UniProt P10637-3 1-364)” was run?
A: Its binding is “binds”.

Q: With “Tubulin β-4B chain (Tubb4b) (from UniProt P68372 1-445)” as the molecule, how does the binding read?
A: Its binding is “binds”.

Q: For “Stress-70 protein, mitochondrial (Hspa9) (from UniProt P38647 47-679)”, which binding is on record?
A: The binding was “binds”.

Q: “Tubulin β-6 chain (Tubb6) (from UniProt Q922F4 1-447)” was tested. Which binding did it give?
A: The binding was “binds”.

Q: How did the binding turn out when “Tubulin β-1 chain (Tubb1) (from UniProt A2AQ07 1-451)” was run?
A: The binding was “binds”.

Q: With “Elongation factor 1-α2 (Eef1a2) (from UniProt P62631 1-463)” as the molecule, how does the binding read?
A: Its binding is “binds”.

B1: Tubulin α chain-like 3 (Tubal3) (protein, UniProt Q3UX10 1-446)
chain: MRECLSIHIGQAGVQIGDACWELYCLEHGIQPDGFILDHQHDNLENPKVEHMNASLDTFFHETRAGKHVPRTLFMDLEPTVIDGIRVGRYHSLFHPEQLVNGKEDAANTYARGRYSVGSEVIELVLERIRKLAEQCSGLQGFLIYRSFGGGTGSGFTSLLMERLSVEYCKKIKLEFSVYPSPRISTAVVEPYNAILTTHSTIEYSDCAFMVDNEALYDICQHKLGIERPSYASINRLIAQVSSSITASLRFEGPLNVDLIEFQTNLVPYPRIHFPITALAPIISAEKAYQEQLSVSDVTASCFEVSNQLVKCDPRLGKYMACCLLYRGDVVPKDVNEAIAAMKSRTSVQFVDWCPTGFKVGINYQPPAVVPGGDLARVQRAVCMLSNTTAIVEAWARLDHKFDLMYAKKAFLHWYITEGMELGEFVEAREDLAALEKDYEEVGLSF
Q: B1 was tested. Which binding did it give?
A: The binding was “binds”.

B2: Carbonyl reductase [NADPH] 1 (Cbr1) (enzyme, UniProt P48758 1-277)
chain: MSSSRPVALVTGANKGIGFAITRDLCRKFSGDVVLAARDEERGQTAVQKLQAEGLSPRFHQLDIDNPQSIRALRDFLLKEYGGLDVLVNNAGIAFKVNDDTPFHIQAEVTMKTNFFGTRDVCKELLPLIKPQGRVVNVSSMVSLRALKNCRLELQQKFRSETITEEELVGLMNKFVEDTKKGVHAEEGWPNSAYGVTKIGVTVLSRILARKLNEQRRGDKILLNACCPGWVRTDMAGPKATKSPEEGAETPVYLALLPPDAEGPHGQFVQDKKVEPW
Q: B2 was tested. Which binding did it give?
A: The binding was “binds”.

B3: Inorganic pyrophosphatase (Ppa1) (enzyme, UniProt Q9D819 1-289)
chain: MSGFSSEERAAPFTLEYRVFLKNEKGQYISPFHDVPIYADKDVFHMVVEVPRWSNAKMEIATKDPLNPIKQDVKKGKLRYVANLFPYKGYIWNYGAIPQTWEDPGHSDKHTGCCGDNDPIDVCEIGSKVCARGEIIRVKVLGILAMIDEGETDWKVIAINVDDPDAANYKDISDVERLKPGYLEATVDWFRRYKVPDGKPENEFAFNAEFKNKDFAVDIIKSTHDYWKALVTKKTDGKGISCMNTTVSESPFKCDPDAAKAIVDALPPPCESACSLPTDVDKWFHQQKN
Q: With B3 as the molecule, how does the binding read?
A: The binding was “binds”.

B4: D-β-hydroxybutyrate dehydrogenase, mitochondrial (Bdh1) (enzyme, UniProt Q80XN0 47-343)
chain: ASQADAASGKAILITGCDSGFGFSLAKHLHSKGFLVFAGCLMKDKGDAGVKELDSLKSDRLRTIQLNVCNSEEVEKAVETIRSGLKDPEKGMWGLVNNAGISTFGEVEFTSMETYKEVAEVNLWGTVRTTKSFLPLLRRAKGRVVNISSMLGRMANPARSPYCITKFGIEAFSDCLRYEMHPLGVKVSVVEPGNFIAATSLYSPERIQAIAKKMWDDLPEVVRKDYGRKYFDEKIAKMETYCNSGSTDTSSVINAVTHALTAATPYTRYHPMDYYWWLRMQIMTHFPGAISDKIYIH
Q: For B4, which binding is on record?
A: Its binding is “binds”.

No constants are given. Whether binding was seen depends on the method and setting. Binding seen in cells or lysates may run through a third protein. These calls come from enrichment with a bait or labelling near it, and not all partners need be listed. Where a sequence is shown, tags or fusion partners need not be part of it.
